# Assay results from the supplement of paper PMC3334620.
# The full ranking holds about 33,000 sequences; the median of “E-score (-0.5 to 0.5)” is about -0.0014, and the highest 2% start at about 0.25. Some of the results follow.
# Target: T1, Cad1 (UniProt P24813)
# T1 sequence: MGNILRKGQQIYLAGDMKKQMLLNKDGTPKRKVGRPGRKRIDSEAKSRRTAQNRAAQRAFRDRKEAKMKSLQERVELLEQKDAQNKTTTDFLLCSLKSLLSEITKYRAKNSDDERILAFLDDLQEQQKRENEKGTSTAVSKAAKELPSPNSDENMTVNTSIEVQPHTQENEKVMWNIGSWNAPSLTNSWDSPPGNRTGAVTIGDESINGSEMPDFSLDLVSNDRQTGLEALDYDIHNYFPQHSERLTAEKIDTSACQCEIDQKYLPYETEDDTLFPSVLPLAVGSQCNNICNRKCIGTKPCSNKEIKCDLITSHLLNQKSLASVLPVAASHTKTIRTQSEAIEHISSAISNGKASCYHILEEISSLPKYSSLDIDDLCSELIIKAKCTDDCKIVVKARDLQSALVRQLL
# Assay: PBM E-score (8-mer binding enrichment) (E-score (-0.5 to 0.5)); higher = stronger / more preferred TF binding
# Settings: protein concentration: 100 nM; construct: GST-full length
# Summary of the method: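 GST-tagged yeast TFs (full-length or DNA-binding domain) were made by PURExpress in vitro transcription/translation and applied at about 100-200 nM to universal all-10-mer Agilent arrays. The arrays were made double-stranded by primer extension, on fresh or once-stripped slides. Bound protein was detected with fluorescent anti-GST, and scans were normalised with masliner. Each ungapped eight-base word, pooled with its reverse complement, received an E-score (modified Wilcoxon-Mann-Whitney statistic) from the Universal PBM Analysis Suite.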
row,Sequence,PBM E-score
1,GACACGTC,-0.0379
2,ACTACACC,-0.0116
3,AGGTCTCC,-0.11
4,CAATAGAA,-0.2
5,CTCTCTAA,-0.172
6,ATCTCCTA,-0.0615
7,CTGAGCCC,-0.161
8,GTGGCAAA,-0.161
9,ATGGGGGG,-0.353
10,ACGTGCAC,0.0563
11,GCCTGAGC,-0.0696
12,ACTACGGG,-0.0843
13,AGGAACGC,0.155
14,GAGCATTA,0.0112
15,CTTTCGGA,0.0275
16,ATCCCAAT,-0.122
17,AGAGCGCA,-0.22
18,AACTCGAC,0.164
19,AGTGCCTA,-0.123
20,ACTGCGAG,-0.0795
21,AATTTGGG,0.0286
22,AAGAGGGT,-0.182
23,AGTCAATC,-0.105
24,CGGGACGC,-0.221
25,AAGAGCTC,-0.225

row,Sequence,PBM E-score
1,CTAGCATC,-0.107
2,ACAACTGT,0.0361
3,AAGTGCAG,-0.21
4,CACCTAGG,-0.146
5,ACCCGATC,-0.137
6,CTAGAAAG,0.013
7,AGATACCT,-0.128
8,GCGGTGTA,0.0726
9,AAAGACGG,-0.0712
10,AACGTGTA,0.109
11,GGGCAATA,-0.00079
12,ATATCAGC,0.00753
13,CGACTTTA,0.102
14,TGAATGAA,0.0419
15,CAGTGCGG,-0.0146
16,CTTTCTAC,0.0489
17,CACTCAAA,0.0452
18,CGGGCAGA,0.0491
19,AGAAGACG,0.171
20,GAACAACA,-0.043
21,ATTACATA,0.296
22,AGATTACT,0.184
23,CTAAACTC,-0.0151
24,TCATTACA,0.23
25,CCGCTTGC,-0.11

# Seven records picked at random from those above, as already listed:
row,Sequence,PBM E-score
1,CTAGCATC,-0.107
5,ACCCGATC,-0.137
2,ACAACTGT,0.0361
13,CGACTTTA,0.102
10,AACGTGTA,0.109
7,AGATACCT,-0.128
15,CAGTGCGG,-0.0146

# (next part)

row,Sequence,PBM E-score
1,CGCCTTCA,-0.129
2,AACTGGAA,0.129
3,GAGGAACC,-0.0742
4,AGTGTGTG,0.136
5,CATCAATC,-0.0692
6,CTTGTGAC,-0.0156
7,CCATACCA,0.0874
8,ATGGACCG,0.00255
9,CATGGTTC,0.024
10,ATTGAGGC,0.0231
11,AATATGGA,0.0714
12,ATACAGCC,0.0178
13,CACCCCGC,0.0312
14,ACGCACCT,-0.00024
15,GGTCTTAC,-0.0387
16,ACTTGGCC,-0.122
17,AGCTCAGA,0.0478
18,CAGGTTCC,-0.0216
19,AGAACGCG,0.0894
20,CCAGGAAA,0.17
21,CGCGCGAA,0.175
22,CCTTCCTA,-0.39
23,ACCATCTG,-0.0991
24,AGTTAAAG,0.0137
25,CCACTGTC,-0.0971

row,Sequence,PBM E-score
1,AAGTGCGA,-0.236
2,GCGTTTAA,0.0668
3,CCGCCTTC,-0.135
4,CCCGAAGG,-0.203
5,CGCTTCTA,0.0246
6,TGCTAGCA,0.263
7,GCACACTA,0.00763
8,ATGATGAC,0.0869
9,AATCAAAG,0.0509
10,ACCGTGGC,-0.177
11,AGTCTATA,0.0344
12,AATTAAAG,-0.0007
13,AACACATG,0.102
14,CTCAGCAA,0.106
15,CAGGGCTA,-0.182
16,AACGAAGT,-0.0578
17,GACGGCGA,-0.186
18,ACATTCCG,0.05
19,AAGCGAAA,-0.0755
20,CCCTTCTA,-0.29
21,ACTGGCGC,0.128
22,ACTCTGAT,-0.00513
23,GGCACAGA,-0.137
24,AGCCGCCT,0.0248
25,CGCGGACG,0.169

row,Sequence,PBM E-score
1,CAGCCTAG,-0.0818
2,AGGACCAG,-0.16
3,ATCACGAG,-0.162
4,AAGCAAAT,0.132
5,AGCGTAAG,0.0888
6,ACGCTTTG,-0.0649
7,GCTATCCC,-0.104
8,CTGGTAAA,0.0872
9,ATTGAACG,0.0446
10,ATCGTTGC,-0.00548
11,CCAGTAAG,-0.0339
12,GCGCAGCA,-0.301
13,GCTCCTAC,-0.0758
14,ATGACTAC,-0.181
15,CTAAGCGA,0.0774
16,ACTGCGAA,0.00767
17,AGGGTAGA,-0.156
18,GGTACGGA,0.022
19,CATGTCGC,-0.0661
20,AGCTAGGC,-0.13
21,ACGTCCCA,-0.248
22,GGACGGAA,-0.0512
23,AGCCCCCG,-0.454
24,ACAAGATA,0.0123
25,CGCCAACG,-0.0234

row,Sequence,PBM E-score
1,GCAGCGAC,-0.264
2,GGTTGCCA,0.026
3,CAATAGGC,0.0601
4,AGTGCTAT,-0.132
5,CAATGAGG,-0.258
6,GAAAGATC,-0.0475
7,GGGGGGAA,-0.346
8,CTGTATGC,-0.0435
9,GAGGGGCA,-0.364
10,GAGTAACC,0.0195
11,GGAAGGTA,-0.137
12,CACGACGG,0.176
13,CCGAAAGG,-0.0838
14,CGATAGCC,0.00324
15,AGGTGAAT,-0.0273
16,ACATCCAG,0.0415
17,CCACCTCG,-0.249
18,ACTGCCTA,-0.002
19,AAAAGTAA,0.265
20,CTCGTATA,-0.176
21,TGTATGAA,0.0103
22,GGGATTCA,-0.0483
23,AACTTCAT,0.152
24,CCTGTTCG,-0.059
25,GTAAACGA,0.0439

row,Sequence,PBM E-score
1,GTGACTGA,0.157
2,AACCGGCC,-0.0621
3,GCGAGAAA,0.127
4,TAACGTCA,0.124
5,CTGGGGCA,-0.247
6,AGAACCCC,-0.0841
7,AGAGAAAC,0.0172
8,CCAATGCA,-0.0491
9,AAGGCGCA,0.0457
10,CCGCCTGA,-0.139
11,ATGAGCAT,0.0806
12,AATAAGCC,0.00433
13,ACTGGTCT,-0.17
14,CGCAGTTA,0.102
15,ATGAGAAA,0.0905
16,TAAGACGA,0.0852
17,AGCGATGA,-0.00781
18,CAGGTTTA,-0.0171
19,CCGCTGAC,0.164
20,AGTGAAAA,0.138
21,ACCTAGGT,-0.129
22,CCCGCACG,-0.0326
